Some results were stated once for a whole list of compounds, not compound by compound. Some ranges recur; such a range may be that of the whole group of compounds.
Test system: Osteoblast-like rat osteosarcoma cells (ROS17/2.8)
Assay: Intracellular calcium measurements (Fura-2 fluorimetry), with or without VDCC blockers, PLC inhibitors or thapsigargin
Assay type: cell-based
Settings: for maximal stimulation of [Ca^2+]i with respect to basal: 10^−8 M, p<0.01, at peak; for increment in [Ca^2+]i over basal levels: 10−10 M, p<0.05, at peak
Protocol: Osteoblast-like rat osteosarcoma cells (ROS17/2.8) were cultured as monolayers at 37° C. in Dulbecco's modified Eagle's medium (DME) containing 10% fetal bovine serum under humidified air (5.5% CO2). After 48 hours, medium was changed to DME containing 1% fetal bovine serum. Unless otherwise stated, cells were allowed to grow until confluence (4-5 days after plating).
Intracellular Ca^2+ changes were monitored by using the Ca^2+-sensitive fluorescent dye Fura-2 as previously described (Vasquez et al., 1998, J. Biol. Chem. 273, 33954-33960). Cell dye loading was achieved by incubating the cells in buffer A containing (in mM): 138 NaCl, 5 KCl, 1 MgCl2, 5 glucose, 10 HEPES (pH 7.4), 1.5 CaCl2, plus 0.1% bovine serumalbumin (BSA), 2 μM of the pentaacetoxymethylester derivative (membrane permeable) Fura-2/AM and 0.012% pluronic F-127, in the dark during 40 min at room temperature (20-25° C.) in order to minimize dye compartmentalization. Unloaded dye was washed out and cells were stored in buffer B (buffer A without BSA, Fura-2/AM and pluronic F-127) in the dark (room temperature) by at least 30 min prior to use, to allow for complete intracellular dye deesterification. For fluorescence measurements the coverslips containing dye-loaded cells were mounted into quartz cuvettes and introduced into the thermostatized (37° C.) sample compartment of a SLM Aminco 8100 spectrofluorimeter. Fura-2 intracellular fluorescence intensity was monitored at an emission wavelength of 510 nm (8 nm bandpass) by alternating with an electronically controlled chopper (300 Hz) the excitation wavelength between 340 and 390 nm employing a dual excitation monochromator at 4 nm bandpass. Signals from short and long wavelength were ratioed (R=340/390) thus making the measurement independent of variations in cellular dye content, dye leakage or photobleaching. Calibration of Fura-2 signal to calculate [Ca^2+]i values was performed for each coverslip as follows: maximal (Rmax) and minimal (Rmin) intracellular dye fluorescence signals were determined by adding 5 μM ionomycin plus 3 mM Ca^2+ and 10 mM EGTA (pH 7.0) plus 10 mM Tris-base (pH 9.0), respectively.
[Ca^2+]i=Kd(R−Rmin)/(Rmax−R)×β
where R is the ratio of Fura-2 fluorescence at the selected wavelengths, Rmax and Rmin represent ratios from Ca^2+ saturated and Ca^2+ free intracellular dye, respectively, and β is the ratio between the specific fluorescence of the Ca^2+ free and Ca^2+ bound forms of the dye at the longer wavelength (Sf2/Sb2).
Fura-2 loaded osteoblasts were treated with vehicle (buffered saline solution, Basal), OPD (10−8 M) or NH2-OPD (10^−8 M) and intracellular Ca^2+ concentration ([Ca^2+]i) was measured as described. Given are [Ca^2+]i values corresponding to the plateau phase (5 min after BP exposure; see FIG. 3) of the BP-induced Ca^2+ response. When used, both nifedipine (2 μM) and verapamil (5 μM) were added 3 min before stimulation. Data are the average of 5 independent [Ca^2−]i recordings±sd. p values (*p<0.001; **p<0.01) are given for significant differences respect to basal. Percent (%) inhibition refers to the decrease in Δ[Ca^2+]i.
Fura-2 loaded cells were treated with vehicle (buffered saline solution, Basal), OPD (10^−8 M) or NH2-OPD (10^−8 M) and intracellular Ca^2+ concentration ([Ca^2+]i) was measured as described. Unless otherwise indicated, [Ca^2+]i stimulation was evaluated at the plateau phase of the BP-induced response (see FIG. 3). When used, the PLC inhibitors U73122 (2 μM) or neomycin (0.5 mM, data in parentheses) were added into the measurement cuvette 3 min before stimulation. In the PLC-inhibition assay [Ca^2+]i values measured at 1- and 5-min. after stimulation are given. Results are expressed as percent of control (100%) to allow comparison among different assay conditions, and are the average of 3 independent experiments±sd. *p<0.001; **p<0.01. Percent (%) inhibition refers to the decrease in Δ[Ca^2+]i.

With CN(C)CCC(O)(P(=O)(O)O)P(=O)(O)O [OPD, olpadronate] the “maximal stimulation of [Ca^2+]i with respect to basal” value was 1.4-1.6 fold, the “increment in [Ca^2+]i over basal levels” value was 1.1-1.2 fold and the “rapid increase in [Ca^2+]i (time of onset)” value (Fura-2 loaded cells) was 30 to 60 s. The “sustained increase in [Ca^2+]i (duration)” value (Fura-2 loaded cells, biphasic time-course) was over 5 min.

With CN(C)CCC(N)(P(=O)(O)O)P(=O)(O)O [NH2-OPD, 1-amino-3-(N,N-dimethylamino)-propylidene-1,1-bisphosphonic acid] the “maximal stimulation of [Ca^2+]i with respect to basal” value was 1.4-1.6 fold and the “increment in [Ca^2+]i over basal levels” value was 1.1-1.2 fold.
